Reference: PubChem BioAssay AID1487 (National Center for Advancing Translational Sciences (NCATS), 2009)
This is one part of the list. Further columns of the screen follow, without active or inactive calls. Compounds called inactive in the main read-out are mostly missing here. Potencies come from curve fits of mixed quality, noted in brackets.

Assay: qHTS Assay for Modulators of Lamin A Splicing
Settings: HeLa LMNA splicing GFP/RFP minigene ratio, 48 h
How it was run: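 Read-out is the ratio of GFP to DsRed2 object intensity, acquired by 488 nm laser-scanning cytometry on HeLa lamin A-EGFP minigene reporter cells. Compound incubation 48 hrs at 37 °C in Opti-MEM with 2% FBS; DMSO 0.5% final.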

[1] = measured here: GFP splicing reporter channel
[2] = measured here: RFP viability control channel

Structure (SMILES)	AC50 [1]	AC50 [2]
CCOC(=O)c1c(NC(=O)/C=C\C(=O)O)sc(C)c1-c1ccccc1	20 µM [falling, single point]	35.5 µM [falling, single point]
CCOc1cc(C(=O)NCCc2csc(-c3ccc(C)cc3)n2)cc(OCC)c1OCC	10 µM [falling, partial curve]	12.6 µM [falling, partial curve]
CCOC(=O)N1CCN(C(=O)CSc2ncnc3ccccc23)CC1		35.5 µM [rising, single point]
CCOC(=O)N1CCC(NC(=O)C2CCCN(S(=O)(=O)c3ccc4c(c3)oc(=O)n4C)C2)CC1 (centres undefined)		25.1 µM [rising, single point]
N#CCC(=O)Nc1ccc(C(=O)NCc2ccccn2)cc1	31.6 µM [falling, partial curve, poor fit]	6.31 µM [falling, partial curve]
O=C(Nc1ccc(F)cc1Cl)C1Cc2ccccc2N1C(=O)c1ccccc1 (centres undefined)	6.31 µM [rising, partial curve, poor fit]	
CN(C)S(=O)(=O)c1ccc(N2CCN(S(=O)(=O)c3ccc(F)cc3)CC2)c(Cl)c1		25.1 µM [rising, single point]
COc1cccc(-c2nn(-c3ccccc3)cc2C(=O)O)c1	6.31 µM [falling, partial curve, poor fit]	0.112 µM [falling, partial curve, poor fit]
COCCCNS(=O)(=O)c1ccc(SC)cc1	35.5 µM [rising, single point]	
CCc1c(C)nc2ncnn2c1N1CCC(C(=O)Nc2ccc(C)cc2)CC1		31.6 µM [rising, single point]
Cc1ccc2cc(C)c(Sc3nnnn3-c3ccccc3)nc2c1		0.251 µM [rising, full curve, poor fit]
CN=C1c2ccccc2CN1c1cccc(C(=O)OC)c1		12.6 µM [rising, single point]
Cc1ccccc1C(=O)NCC(=O)O	2.24 µM [rising, full curve, poor fit]	
CSc1cccc(CN2CCC(CO)(Cc3cccc(C(F)(F)F)c3)CC2)c1	22.4 µM [falling, partial curve, poor fit]	22.4 µM [falling, partial curve]
C=CCN1c2ccccc2[C@]23C[C@@H](C(=O)OC)N(S(=O)(=O)CCCC)C2=NC(C(=O)OC)=C(C(=O)OC)[C@H]13	0.631 µM [falling, single point]	
ClCC1NCC(c2ccccc2Cl)c2c1[nH]c1ccccc21 (centres undefined)		17.8 µM [falling, single point]
O=S(=O)(Nc1ccc(-n2cccc2)cc1)c1ccc(Cl)c(Cl)c1	2.82 µM [falling, partial curve, poor fit]	10 µM [falling, partial curve]
O=C(Nc1ccc(N2CCCCC2)c(Cl)c1)c1ccc2c(c1)OCCO2	11.2 µM [rising, partial curve, poor fit]	17.8 µM [rising, single point]
COc1ccc(CNc2ncnc3ccc(-c4ccc5c(c4)OCO5)cc23)c(OC)c1	10 µM [falling, partial curve]	
N#CCSc1nc2sc3c(c2c(=O)n1C1CCCCC1)CCCC3	2.51 µM [rising, partial curve, poor fit]	
COc1ccc(-c2nnn(CC(=O)N(CCO)C(C(=O)NC3CCCC3)c3ccncc3)n2)cc1 (centres undefined)	0.794 µM [falling, full curve, poor fit]	
CN(C(=O)CSc1nc2ccccc2n1Cc1cccc(C(F)(F)F)c1)c1ccccc1		31.6 µM [rising, single point]
COc1cccc(-c2cc(C(=O)Nc3nc4ccccc4s3)c3ccccc3n2)c1		20 µM [rising, partial curve, poor fit]
CCOC(=O)c1c(NC(=O)Cn2nnc3ccccc32)sc2c1CCC(C)C2 (centres undefined)		12.6 µM [rising, partial curve]
CN(c1ccccc1)C1CCCCC1NS(=O)(=O)c1ccc(Cl)cc1 (centres undefined)	15.8 µM [rising, single point]	14.1 µM [rising, partial curve]
CS(=O)(=O)N1CCC(Oc2ccccc2C(=O)N2CCCCC2CO)CC1 (centres undefined)		0.708 µM [falling, partial curve, poor fit]
O=C(CSc1nnc(NC(=O)c2ccccc2F)s1)Nc1ccccc1F	0.0398 µM [falling, full curve, poor fit]	2.24 µM [falling, full curve, poor fit]
Cc1ccc2c(c1)c1ncnc(N3CCN(c4ccccc4)CC3)c1n2C	12.6 µM [rising, partial curve]	25.1 µM [rising, single point]

Two entries picked at random from those above, as already listed:
Structure (SMILES)	AC50 [1]	AC50 [2]
Cc1ccccc1C(=O)NCC(=O)O	2.24 µM [rising, full curve, poor fit]	
CN(c1ccccc1)C1CCCCC1NS(=O)(=O)c1ccc(Cl)cc1 (centres undefined)	15.8 µM [rising, single point]	14.1 µM [rising, partial curve]

Remaining list, next part

Structure (SMILES)	AC50 [1]	AC50 [2]
Cc1ccc(OCCNC(=O)c2cncc(Br)c2)cc1C		35.5 µM [falling, single point]
COc1ccccc1CNC(=O)c1ccc2nc3[nH]c4ccccc4c3nc2c1		1.78 µM [rising, full curve, poor fit]
Cc1nn(-c2cccc(Cl)c2)c2c1C(c1ccncc1)C(C#N)=C(N)O2 (centres undefined)	22.4 µM [rising, single point]	35.5 µM [rising, single point]
CC(C)NC(=O)C1COc2ccccc2O1 (centres undefined)	35.5 µM [falling, single point]	
Cc1cc2ccccc2n2c(SCC(=O)Nc3ccc(S(=O)(=O)N4CCCCC4)cc3)nnc12		14.1 µM [rising, single point]
Cc1ccc(-c2nc3ccccc3s2)cc1S(=O)(=O)N1CCCC1		35.5 µM [rising, single point]
COc1ccc(CNC(=O)c2cc(C)nc3c2c(C)nn3-c2cccc(Cl)c2C)cc1	35.5 µM [falling, single point]	25.1 µM [falling, single point]
O=C(CSc1ncnc2c1oc1ccccc12)NCc1ccco1		5.62 µM [rising, single point]
O=C(Nc1ccc(O)c(-c2nc3ccccc3o2)c1)C1(c2ccc(Br)cc2)CCCC1		0.355 µM [falling, partial curve, poor fit]
CCOC(=O)c1nnc(-c2ccccc2)nc1Sc1c(Cl)cccc1Cl	14.1 µM [falling, single point]	25.1 µM [falling, single point]
COc1ccc(C2SCCN2C(=S)Nc2ccc(F)cc2)cc1 (centres undefined)		20 µM [rising, single point]
CCCN(Cc1ccccc1)C(=O)Nc1ccc2c(c1)nnn2C		17.8 µM [rising, single point]
CCOC(=O)c1sc(NC(=O)c2cccc(S(=O)(=O)N3CCN(C)CC3)c2)cc1C	12.6 µM [rising, single point]	
COc1cc(CNc2ccc3[nH]c(=O)[nH]c3c2)cc(Cl)c1OCc1ccccc1F	1.41 µM [falling, full curve, poor fit]	35.5 µM [falling, partial curve, poor fit]
COc1ccc(C2C(C(=O)c3ccccc3)=C(C)Nc3nc4ccccc4n32)cc1OC (centres undefined)	3.98 µM [falling, full curve, poor fit]	2.51 µM [falling, full curve]
NC(CSCC(=O)O)C(=O)O (centres undefined)		35.5 µM [falling, single point]
Cc1ccc(-n2c(Cl)c(Cl)nc(Cl)c2=O)cc1		0.631 µM [rising, partial curve, poor fit]
O=C(CSc1nc2ccccc2n1-c1ccccc1)Nc1ncc(Cl)cc1Cl		1.12 µM [rising, full curve, poor fit]
O=C(CSC1=N/C(=C/c2ccco2)C(=O)N1c1ccc(OC(F)F)cc1)NC1CCS(=O)(=O)C1 (centres undefined)	3.16 µM [falling, partial curve]	
CCOC(=O)c1sc2nc(C3CC3)cc(-c3ccc(F)cc3)c2c1N		12.6 µM [falling, partial curve, poor fit]
COC(=O)c1ccccc1NC(=O)C1CC(c2ccc(F)cc2)=NO1 (centres undefined)	1.58 µM [rising, partial curve, poor fit]	14.1 µM [rising, single point]
COc1ccc(CNc2nc(-c3ccccc3OC)nc3ccccc23)c(OC)c1	25.1 µM [falling, single point]	35.5 µM [falling, single point]
CN(C)c1ncc2ncc(=O)n(CCc3ccccc3)c2n1	7.08 µM [falling, partial curve]	10 µM [falling, partial curve, poor fit]
CC(C)(C)c1ccc(OCC(=O)Nc2ccc3c4c(cccc24)C(=O)NC3=O)cc1		11.2 µM [falling, partial curve]
CCOC(=O)N1CCN(Cc2nc(-c3cccs3)no2)CC1		0.224 µM [falling, partial curve, poor fit]
O=C(NCc1ccc(F)cc1)c1ccc(S(=O)(=O)Nc2cccc(C(F)(F)F)c2)cc1		10 µM [rising, partial curve]
COc1cccc(C(=O)COc2ccccc2-c2ccccc2)c1	15.8 µM [rising, single point]	31.6 µM [rising, single point]
